Reference: PubChem BioAssay AID651768 (National Center for Advancing Translational Sciences (NCATS), 2012)
Hit rate of the full screen: of about 360,000 compounds, about 1,700 (0.47%) were called active. This list was built around the results that the source calls inconclusive (neither active nor inactive); the mix of calls is not that of the screen. The call rests on the fitted dose curve; in most records, active means well fitted inhibition curve with a large enough effect; inconclusive means small, poorly fitted or top-dose-only effect; inactive means no such curve, though single readings can be large or run the other way. Potencies beside an inconclusive call are fits to weak or partial responses and may not hold up.

Sequences of proteins named here, by UniProt entry; tags and fusion partners are left off.
UniProt Q14191, whole entry, looked up: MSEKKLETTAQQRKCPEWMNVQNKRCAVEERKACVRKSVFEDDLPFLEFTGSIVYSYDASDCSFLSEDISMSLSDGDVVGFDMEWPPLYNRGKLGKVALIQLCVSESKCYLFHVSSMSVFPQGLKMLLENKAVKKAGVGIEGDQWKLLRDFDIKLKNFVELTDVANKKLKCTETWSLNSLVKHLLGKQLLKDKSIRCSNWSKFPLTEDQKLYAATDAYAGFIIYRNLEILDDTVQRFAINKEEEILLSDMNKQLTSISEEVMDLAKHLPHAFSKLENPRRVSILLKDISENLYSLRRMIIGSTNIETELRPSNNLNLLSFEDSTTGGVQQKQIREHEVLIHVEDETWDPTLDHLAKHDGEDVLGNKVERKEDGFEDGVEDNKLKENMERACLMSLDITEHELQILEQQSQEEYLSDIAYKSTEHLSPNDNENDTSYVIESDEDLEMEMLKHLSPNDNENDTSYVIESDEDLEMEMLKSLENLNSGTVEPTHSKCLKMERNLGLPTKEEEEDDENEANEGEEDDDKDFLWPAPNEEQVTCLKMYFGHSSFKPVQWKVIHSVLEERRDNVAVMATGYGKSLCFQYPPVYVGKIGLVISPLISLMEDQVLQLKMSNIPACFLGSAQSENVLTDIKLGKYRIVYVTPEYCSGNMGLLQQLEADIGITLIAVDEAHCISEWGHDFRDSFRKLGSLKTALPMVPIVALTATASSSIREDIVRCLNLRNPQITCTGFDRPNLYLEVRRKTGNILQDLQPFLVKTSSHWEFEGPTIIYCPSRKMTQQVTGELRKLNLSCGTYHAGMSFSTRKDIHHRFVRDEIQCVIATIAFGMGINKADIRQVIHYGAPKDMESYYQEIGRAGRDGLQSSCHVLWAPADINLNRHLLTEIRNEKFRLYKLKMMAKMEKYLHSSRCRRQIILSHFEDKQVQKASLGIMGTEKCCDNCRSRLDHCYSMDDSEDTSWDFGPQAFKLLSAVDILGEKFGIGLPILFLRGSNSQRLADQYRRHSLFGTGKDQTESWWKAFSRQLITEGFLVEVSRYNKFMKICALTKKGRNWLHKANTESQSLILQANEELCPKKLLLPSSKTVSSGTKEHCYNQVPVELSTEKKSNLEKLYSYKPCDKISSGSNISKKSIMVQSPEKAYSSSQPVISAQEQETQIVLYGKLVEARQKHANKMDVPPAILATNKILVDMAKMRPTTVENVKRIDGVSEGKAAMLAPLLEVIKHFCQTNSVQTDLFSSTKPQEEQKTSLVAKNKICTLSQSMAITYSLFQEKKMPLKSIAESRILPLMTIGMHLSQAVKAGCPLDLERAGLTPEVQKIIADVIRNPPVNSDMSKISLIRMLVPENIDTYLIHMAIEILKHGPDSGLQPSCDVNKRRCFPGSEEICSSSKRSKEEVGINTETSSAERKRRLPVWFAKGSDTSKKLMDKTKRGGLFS

biological target: Bifunctional 3'-5' exonuclease/ATP-dependent helicase WRN (Homo sapiens) (UniProt Q14191); experiment: qHTS for Inhibitors of WRN Helicase; details: WRN helicase unwinding, fluorescent forked duplex, kinetic; activity change, negative = inhibition: at 114 µM (top of the series) unless noted; further: nearly all actives have a fitted effect of over 55% in size
Procedure, shortened: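 WRN at 20 nM final preincubated with compound 15 min at room temperature; reaction started with 100 nM fluorophore/quencher forked duplex oligonucleotide and 2 mM ATP final. Unwinding followed kinetically by red fluorescence (ex 525, em 598 nm).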
On the % scale 0 is the no-effect control and ±100 the full control effect; potency means the concentration at half of the fitted maximal effect.

Compound	activity change, negative = inhibition	Potency
COc1ccc(CN2CCN(C(=O)Cn3c(=O)oc4cc(Cl)ccc43)CC2)c(OC)c1OC	inactive: -8.38%	–
O=C(O)CSc1nc2ccc(C(=O)c3ccccc3)cc2[nH]1	–	inconclusive: 10 µM [inhibitor, full curve]
COC(=O)c1cc(=O)n(Cc2ccco2)c(=Nc2ccc(F)c(Cl)c2)s1	inactive: -11%	–
c1ccc(N2N=C(c3cccs3)CC2c2ccco2)cc1 (centres undefined)	inactive: -18.8%	–
COc1ccc(C)cc1-n1c(=O)c2ccccc2c2ccccc2c1=O	–	inconclusive: 50.1 µM [inhibitor, partial curve]
CC/C(O)=C1\C(=O)CC(c2ccccc2)CC1=NCCc1c(C)[nH]c2ccc(C)cc12 (centres undefined)	inactive: -1.22%	–
Cc1ccnc(NS(=O)(=O)c2ccc(NC(=O)c3cc(-c4ccc(Br)cc4)nc4ccccc34)cc2)n1	–	inconclusive: 12.6 µM [inhibitor, partial curve]
C=CCN(c1ccccc1OC)S(=O)(=O)c1cccc(C(=O)NCc2cccs2)c1	–	inconclusive: 25.1 µM [inhibitor, full curve, poor fit]
COc1ccc2c(c1)c(=O)oc1cc(OCC(=O)N3CCC(C)CC3)ccc12	–	inconclusive: 56.2 µM [inhibitor, partial curve]
CCCOc1ccc(C(=O)NNC(=S)NC(=O)c2cccs2)cc1	inactive: 15.5%	–
CC1CCCCC1NC(=O)COC(=O)c1c2c(nc3ccccc13)/C(=C\c1ccco1)CC2 (centres undefined)	inconclusive: -66.9% [inhibitor]	–
COc1ccc(F)c(-c2nc(CN3CCN(C(=O)c4ccco4)CC3)c(C)o2)c1	–	inconclusive: 31.6 µM [inhibitor, full curve, poor fit]
O=C(NC1CCCc2ccccc21)c1ccc(Cl)nc1 (centres undefined)	–	inconclusive: 89.1 µM [inhibitor, single point]
Cc1oc2c(O)c(O)ccc2c(=O)c1-c1ccc(Cl)cc1	–	inconclusive: 79.4 µM [inhibitor, partial curve]
COc1cccc2c1C(=N)c1c(O)c3c(c(O)c1C2=O)CC(O)(C(C)=O)CC3OC1CC(N)C(O)C(C)O1 (centres undefined)	–	inconclusive: 2.67 µM [inhibitor, partial curve]
Cc1[nH]nc(C(=O)NN=Cc2ccccc2Cl)c1N=NN(C)C	–	inconclusive: 17.8 µM [inhibitor, full curve, poor fit]
Cc1ccc(C(=O)Nc2nnc(CC(=O)N/N=C/c3ccc(O)c(O)c3)s2)cc1	–	active: 20 µM
CNC(=S)N/N=C/c1c(C)cccc1Cl	–	inconclusive: 3.55 µM [inhibitor, full curve, poor fit]
CN(C)S(=O)(=O)c1cccc(NC(=O)COC(=O)c2ccc([N+](=O)[O-])o2)c1	inactive: -5.14% [at 57.1 µM]	–
Fc1cccc(Nc2nc(-c3ccncc3)nc3ccccc23)c1	–	inconclusive: 28.2 µM [inhibitor, single point]
Cn1c(SCC(=O)N/N=C/C=C/c2ccco2)nc2ccccc21	–	inconclusive: 56.2 µM [inhibitor, partial curve, poor fit]
COc1cccc(-c2cccc3c2NC(=O)C3(C)Cc2ccccc2F)c1 (centres undefined)	inactive: 5.98%	–
Cc1ccccc1C(=O)Nc1scc(-c2ccc(Br)cc2)c1C(=O)O	–	inconclusive: 20 µM [inhibitor, full curve]

Record cards, as listed above. Values in the order: activity change, negative = inhibition	Potency
Cn1c(SCC(=O)N/N=C/C=C/c2ccco2)nc2ccccc21 in the list: –	inconclusive: 56.2 µM [inhibitor, partial curve, poor fit]
CCCOc1ccc(C(=O)NNC(=S)NC(=O)c2cccs2)cc1 in the list: inactive: 15.5%	–
O=C(O)CSc1nc2ccc(C(=O)c3ccccc3)cc2[nH]1 in the list: –	inconclusive: 10 µM [inhibitor, full curve]

Carrying on.

Compound	activity change, negative = inhibition	Potency
CCc1cc(=O)oc2cc(C)c(CN3CCCC3)c(O)c12	–	active: 31.6 µM
CCOc1ccc(N(C)c2ccc(/C=C3/SC(=S)NC3=O)cc2)cc1	–	inconclusive: 20 µM [inhibitor, single point]
CC1=NN(c2ccc(C)c(C)c2)C(=O)C1C(c1cccc(O)c1)C1C(=O)N(c2ccc(C)c(C)c2)N=C1C (centres undefined)	–	inconclusive: 50.1 µM [inhibitor, partial curve]
NC(=S)n1[nH]c(-c2ccc([N+](=O)[O-])cc2)c(N=Nc2cccc([N+](=O)[O-])c2)c1=O	–	inconclusive: 4.74 µM [inhibitor, single point]
O=C1/C(=C\c2ccc([N+](=O)[O-])cc2)CS(=O)(=O)C/C1=C/c1ccc([N+](=O)[O-])cc1	–	inconclusive: 14.1 µM [inhibitor, full curve, poor fit]
O=[N+]([O-])c1ccc(NN=Cc2ccco2)nc1	inactive: -3.1% [at 11.6 µM]	–
Cc1ccc2c(c1)c(=O)c1c3n2CCN(C(=O)CCl)C3CC1 (centres undefined)	–	inconclusive: 50.1 µM [inhibitor, partial curve]
O=C1CSC(=S)N1N=Cc1ccc(Cl)s1	–	active: 20 µM
COc1ccccc1N1CCN(C(=O)c2ccc(C(C)(C)C)cc2)CC1	–	active: 50.1 µM
Cc1cccc(NC2=NCC(=O)N2Cc2cccs2)c1	–	active: 50.1 µM
C=CCn1c(SCC(=O)c2ccc(O)c(O)c2)nnc1-c1ccccc1OC	–	inconclusive: 11.9 µM [inhibitor, partial curve]
Oc1c(CN2CCOCC2)cc(CN2CCOCC2)c(O)c1CN1CCOCC1	–	inconclusive: 15.8 µM [inhibitor, full curve]
O=c1[nH]c(/C=C\c2ccc(O)c(O)c2)nc(O)c1[N+](=O)[O-]	–	inconclusive: 28.2 µM [inhibitor, single point]
O=C(C1CCCCC1)N1CCN(c2nc(-c3ccc(F)cc3)cs2)CC1	–	inconclusive: 79.4 µM [inhibitor, single point]
COc1ccc(-c2[nH]n(-c3ccc([N+](=O)[O-])cc3)c(=O)c2C=NCc2ccccc2)cc1	–	inconclusive: 89.1 µM [inhibitor, single point]
O=C(NN1C(=O)C2CC=C(Cl)CC2C1=O)c1ccncc1 (centres undefined)	–	inconclusive: 31.6 µM [inhibitor, partial curve]
C/C(=N\Nc1ccc(Cl)c(C(=O)O)c1)c1ccc(Br)s1	–	inconclusive: 50.1 µM [inhibitor, partial curve]
O=C(O)c1ccc(NS(=O)(=O)c2ccc(C(=O)Nc3ccccc3)cc2)cc1	–	inconclusive: 89.1 µM [inhibitor, single point]
COc1ccc(Cl)cc1S(=O)(=O)N1CCC(C(=O)NCC2CCCO2)CC1 (centres undefined)	–	inconclusive: 89.1 µM [inhibitor, single point]
CC(OCCN1CCCC1)(c1ccc(F)cc1)c1ccc(F)cc1	inactive: 5.82%	–
CCN(CC)c1ccc(/C=C2\C(=O)c3ccc(C(=O)O)cc3C2=O)cc1	–	active: 39.8 µM
C=C(C)C(=O)Nc1cccc(C2=NOC3(C2)C[C@@H](C(N)=O)N(C(=O)C2(C)CC2)C3)c1 (some centres undefined)	–	inconclusive: 79.4 µM [inhibitor, partial curve]
O=C(O)c1ccc(NS(=O)(=O)c2ccc3c(c2)C(=O)c2ccccc2C3=O)cc1	–	inconclusive: 10 µM [inhibitor, full curve, poor fit]

Reprinted from the results shown, two compounds:
Compound	activity change, negative = inhibition	Potency
COc1ccc(Cl)cc1S(=O)(=O)N1CCC(C(=O)NCC2CCCO2)CC1 (centres undefined)	–	inconclusive: 89.1 µM [inhibitor, single point]
CC(OCCN1CCCC1)(c1ccc(F)cc1)c1ccc(F)cc1	inactive: 5.82%	–

Next records follow.

Compound	activity change, negative = inhibition	Potency
Cc1nn(-c2ccccc2)c2sc(-c3n[nH]c(=S)o3)cc12	–	inconclusive: 79.4 µM [inhibitor, partial curve]
NNc1ccccc1C(F)(F)F	–	inconclusive: 50.1 µM [inhibitor, partial curve]
CC(C)(C)NC(=O)C1c2ccccc2OCC(=O)N1Cc1ccccn1 (centres undefined)	inactive: -1.8%	–
Cc1cc(C)cc(-n2c(N)c(C(=O)Nc3c(C)n(C)n(-c4ccccc4)c3=O)c3nc4ccccc4nc32)c1	–	inconclusive: 10 µM [inhibitor, partial curve]
Cc1cc(C)n2c(SCC(=O)Nc3cccc(S(N)(=O)=O)c3)nnc2n1	inactive: -0.209%	–
O=C(CSc1n[nH]c(=O)n1C1CC1)Nc1ccc(F)c(Cl)c1	inactive: -11.2%	–
NS(=O)(=O)c1ccc(CCNC(=O)CCS(=O)(=O)c2ccc(Br)cc2)cc1	–	inconclusive: 56.2 µM [inhibitor, partial curve]
COc1cc(N)ccc1Nc1c2ccccc2nc2ccccc12	–	inconclusive: 35.5 µM [inhibitor, single point]
CC(C)N(C)CCOC(=O)c1ccccc1Br	inactive: 6.37%	–
Cc1ccc(S(=O)(=O)Nc2ccccc2C=Nc2cccc(C)c2C)cc1	–	inconclusive: 11.2 µM [inhibitor, partial curve]
COC(=O)c1ccccc1NC(=O)C1CC(=O)N(C2CCCCC2)C1 (centres undefined)	inactive: 2.48%	–
N#Cc1ccsc1NC(=O)CSc1ncnc2ccccc12	–	inconclusive: 63.1 µM [inhibitor, partial curve, poor fit]
N#Cc1nc(-c2ccc(F)cc2)oc1N1CCN(C(=O)c2ccco2)CC1	–	inconclusive: 79.4 µM [inhibitor, partial curve]
O=C(NCCNCCO)C1(C(F)(F)F)C/C(=C\CCO)CCCO1 (centres undefined)	inactive: -6.92%	–
Cc1nc(SCC(=O)c2cccc([N+](=O)[O-])c2)n[nH]1	–	inconclusive: 89.1 µM [inhibitor, single point]
CCCCC(CC)COC(=O)CCCCC(=O)OCC(CC)CCCC (centres undefined)	inactive: 2.05%	–
Cn1c(SCC(=O)NC(=O)NCc2ccco2)nnc1-c1ccccc1	inconclusive: -49.6% [inhibitor] [at 57.1 µM]	–
COc1cc(C(=O)ONC(=O)c2ccc(OC(F)F)cc2)cc(OC)c1OC	inactive: -11% [at 11.6 µM]	–
O=C(CSC(=S)N1CCCC1)c1cc(Br)cc(Br)c1O	–	active: 56.2 µM
COc1ccc(C(=O)n2nc(-c3ccco3)nc2SC)cc1OC	–	inconclusive: 11.2 µM [inhibitor, partial curve]
NS(=O)(=O)c1ccc(NC(=O)COc2cccc3ccccc23)cc1	–	inconclusive: 89.1 µM [inhibitor, single point]
CCN(CC)c1ccc(/C=C2/C(=O)c3ccc(C(=O)O)cc3C2=O)cc1	–	active: 35.5 µM
COC(=O)c1c(NS(=O)(=O)c2ccc3ccccc3c2)sc2c1CCCC2	inactive: -8.33%	–
